Like-named read-outs stand apart in the source and are kept apart here. Results are given in words; binding and its absence hold for the method and conditions named. In cells and extracts the contact can be indirect. Some binding calls cover weakened binding; strength is not graded here. For some assays here: Where a sequence is shown, tags or fusion partners need not be part of it.
How the values were obtained:
Test in all cases: co-IP
[1] = molecular target: T1, GSDMD-mCherry (full-length GSDMD) (human) (UniProt P57764)
T1 sequence: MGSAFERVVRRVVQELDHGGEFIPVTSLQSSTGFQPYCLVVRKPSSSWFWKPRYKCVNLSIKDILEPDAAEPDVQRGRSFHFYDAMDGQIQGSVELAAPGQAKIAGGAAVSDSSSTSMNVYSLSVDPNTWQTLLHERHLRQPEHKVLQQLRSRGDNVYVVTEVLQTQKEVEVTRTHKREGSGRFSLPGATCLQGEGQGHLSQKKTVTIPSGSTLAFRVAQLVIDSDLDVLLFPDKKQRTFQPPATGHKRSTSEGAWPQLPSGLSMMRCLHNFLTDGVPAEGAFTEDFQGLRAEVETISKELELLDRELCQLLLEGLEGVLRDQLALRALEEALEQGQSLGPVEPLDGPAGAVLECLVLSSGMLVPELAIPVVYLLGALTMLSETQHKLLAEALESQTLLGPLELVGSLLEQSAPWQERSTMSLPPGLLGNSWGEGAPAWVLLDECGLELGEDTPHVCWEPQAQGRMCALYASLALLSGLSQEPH

[2] = molecular target: T2, GSDMD N-terminus (residues 1-144)-mCherry (human) (UniProt P57764)
T2 sequence: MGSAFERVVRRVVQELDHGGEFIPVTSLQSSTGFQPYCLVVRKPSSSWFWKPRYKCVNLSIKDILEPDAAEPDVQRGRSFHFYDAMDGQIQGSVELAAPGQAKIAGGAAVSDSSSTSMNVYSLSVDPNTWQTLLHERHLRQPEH

[3] = molecular target: T3, GSDMD N-terminus (residues 1-176)-mCherry (human) (UniProt P57764)
T3 sequence: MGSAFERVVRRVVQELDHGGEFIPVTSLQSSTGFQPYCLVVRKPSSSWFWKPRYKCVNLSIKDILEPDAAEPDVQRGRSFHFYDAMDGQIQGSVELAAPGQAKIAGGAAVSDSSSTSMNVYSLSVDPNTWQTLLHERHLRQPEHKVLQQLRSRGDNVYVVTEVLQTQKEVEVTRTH

[4] = molecular target: mCherry-tagged RING1 (human) (UniProt Q06587)
[5] = molecular target: T1, GSDMD-mCherry (full-length GSDMD) (human); remark: listed apart in the source

Molecule | binding [1] | other results
RING1 (89-229)-GFP (from UniProt Q06587 89-229) (domain or fragment) | no binding | –
RING1 (1-229) truncation-GFP (from UniProt Q06587 1-229) (domain or fragment) | binds | –
RING1 (1-88)-GFP (from UniProt Q06587 1-88) (domain or fragment) | no binding | –
RING1-GFP (from UniProt Q06587 1-406) | binds | binding [2]: binds; binding [3]: binds
HA-tagged GSDMD (Gasdermin D) (protein, UniProt P57764 1-484) MGSAFERVVRRVVQELDHGGEFIPVTSLQSSTGFQPYCLVVRKPSSSWFWKPRYKCVNLSIKDILEPDAAEPDVQRGRSFHFYDAMDGQIQGSVELAAPGQAKIAGGAAVSDSSSTSMNVYSLSVDPNTWQTLLHERHLRQPEHKVLQQLRSRGDNVYVVTEVLQTQKEVEVTRTHKREGSGRFSLPGATCLQGEGQGHLSQKKTVTIPSGSTLAFRVAQLVIDSDLDVLLFPDKKQRTFQPPATGHKRSTSEGAWPQLPSGLSMMRCLHNFLTDGVPAEGAFTEDFQGLRAEVETISKELELLDRELCQLLLEGLEGVLRDQLALRALEEALEQGQSLGPVEPLDGPAGAVLECLVLSSGMLVPELAIPVVYLLGALTMLSETQHKLLAEALESQTLLGPLELVGSLLEQSAPWQERSTMSLPPGLLGNSWGEGAPAWVLLDECGLELGEDTPHVCWEPQAQGRMCALYASLALLSGLSQEPH | – | binding [4]: binds
C-terminal domain of RING1 (230-406)-GFP (domain or fragment, UniProt Q06587 230-406) EDSGDRGGTLGGGTLGPPSPPGAPSPPEPGGEIELVFRPHPLLVEKGEYCQTRYVKTTGNATVDHLSKYLALRIALERRQQQEAGEPGGPGGGASDTGGPDGCGGEGGGAGGGDGPEEPALPSLEGVSEKQYTIYIAPGGGAFTTLNGSLTLELVNEKFWKVSRPLELCYAPTKDPK | – | binding [5]: binds weakly
